In PMC8891551:
These are yes or no findings as the source states them, for the method shown. Binding seen in cells or lysates may run through a third protein. Some results given as binding are weak or reduced against the parent protein; the word gives no strength.

Biological target: T1, Toll-like receptor 13 (mouse (endogenous in C2C12)) (UniProt Q6R5N8)
T1 sequence: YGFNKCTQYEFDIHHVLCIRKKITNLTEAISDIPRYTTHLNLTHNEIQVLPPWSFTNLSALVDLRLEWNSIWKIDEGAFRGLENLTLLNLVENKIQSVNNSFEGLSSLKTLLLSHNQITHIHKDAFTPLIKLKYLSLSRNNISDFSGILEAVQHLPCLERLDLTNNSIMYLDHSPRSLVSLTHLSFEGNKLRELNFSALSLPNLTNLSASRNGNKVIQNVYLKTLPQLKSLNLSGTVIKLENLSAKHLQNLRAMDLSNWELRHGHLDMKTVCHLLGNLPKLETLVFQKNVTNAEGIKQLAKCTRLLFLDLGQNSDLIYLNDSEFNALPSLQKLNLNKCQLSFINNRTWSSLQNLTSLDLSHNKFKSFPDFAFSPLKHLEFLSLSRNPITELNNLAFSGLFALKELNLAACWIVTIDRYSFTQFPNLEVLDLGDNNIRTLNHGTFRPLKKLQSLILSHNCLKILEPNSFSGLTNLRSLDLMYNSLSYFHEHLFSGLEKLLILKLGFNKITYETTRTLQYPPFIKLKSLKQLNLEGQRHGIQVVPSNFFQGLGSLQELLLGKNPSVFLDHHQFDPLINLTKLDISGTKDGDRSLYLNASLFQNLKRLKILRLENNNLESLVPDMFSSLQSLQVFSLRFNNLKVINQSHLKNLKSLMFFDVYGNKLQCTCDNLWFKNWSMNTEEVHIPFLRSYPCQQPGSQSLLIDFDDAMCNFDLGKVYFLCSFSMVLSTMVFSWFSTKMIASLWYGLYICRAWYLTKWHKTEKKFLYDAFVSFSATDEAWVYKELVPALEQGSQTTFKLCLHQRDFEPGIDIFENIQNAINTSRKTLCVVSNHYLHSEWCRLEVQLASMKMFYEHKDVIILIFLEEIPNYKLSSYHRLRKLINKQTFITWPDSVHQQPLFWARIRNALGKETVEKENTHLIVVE
Test: co-IP; 4 ug anti-TLR13 or anti-IRF3 antibody added to C2C12 lysates, overnight at 4°C with phosphatase and protease inhibitors; Protein A/G Plus beads 2 h; western blotting

B1: Interferon regulatory factor 3 (protein, UniProt P70671 1-419)
chain: METPKPRILPWLVSQLDLGQLEGVAWLDESRTRFRIPWKHGLRQDAQMADFGIFQAWAEASGAYTPGKDKPDVSTWKRNFRSALNRKEVLRLAADNSKDPYDPHKVYEFVTPGARDFVHLGASPDTNGKSSLPHSQENLPKLFDGLILGPLKDEGSSDLAIVSDPSQQLPSPNVNNFLNPAPQENPLKQLLAEEQWEFEVTAFYRGRQVFQQTLFCPGGLRLVGSTADMTLPWQPVTLPDPEGFLTDKLVKEYVGQVLKGLGNGLALWQAGQCLWAQRLGHSHAFWALGEELLPDSGRGPDGEVHKDKDGAVFDLRPFVADLIAFMEGSGHSPRYTLWFCMGEMWPQDQPWVKRLVMVKVVPTCLKELLEMAREGGASSLKTVDLHISNSQPISLTSDQYKAYLQDLVEDMDFQATGNI
binding: binds
